The supplement of paper PMC4604168 (melanoma cell lines)
This is one part of the list. Single values are uncertain, as repeats are few or missing.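 The apoptosis fraction was the count of cleaved-PARP antibody-stained nuclei relative to all DNA-stained nuclei, imaged in 1,536-well plates. Screening doses were set so most cells survived, and baseline and induced cleaved-PARP levels vary greatly across cell lines.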

Each compound was assayed on CBRC034 (line from a melanoma biopsy) (assay: cleaved PARP positive nuclei fraction relative to DMSO control; melanoma cells; higher = more apoptosis). Settings: library dose: low library concentration; 72 h.

Question: O=C(CCCCCCC(=O)Nc1ccccc1)NO [vorinostat] + O=S(=O)(c1ccccc1)N(CC(F)(F)F)c1ccc(C(O)(C(F)(F)F)C(F)(F)F)cc1 [T0901317] (first compound 0.08 µM, partner dose 1.4 µM) was tested. Which “cleaved PARP positive nuclei fraction” value did it give?
Answer: 44.5%

Question: How did the “cleaved PARP positive nuclei fraction” value turn out when CC(C)(C)c1cnc(CSc2cnc(NC(=O)C3CCNCC3)s2)o1 + CCc1ccc(CCOc2ccc(CC3SC(=O)NC3=O)cc2)nc1 [pioglitazone] (first compound 0.01 µM, partner dose 2 µM) was run?
Answer: 82.5%

Question: For COc1cc(Nc2ncc(F)c(Nc3ccc4c(n3)NC(=O)C(C)(C)O4)n2)cc(OC)c1OC [Tamatinib] + Cn1cc(/C=C2\C(=O)Nc3cccnc32)c2ccccc21 [GW441756] (first compound 0.4 µM, partner dose 0.4 µM), which “cleaved PARP positive nuclei fraction” value is on record?
Answer: 126%

Question: With C#Cc1cccc(Nc2ncnc3cc(OCCOC)c(OCCOC)cc23)c1 [erlotinib] + N#Cc1c(O)c2c(-c3ccc(-c4ccccc4O)cc3)csc2[nH]c1=O [A769662] (first compound 0.8 µM, partner dose 2 µM) as the compound, how does the “cleaved PARP positive nuclei fraction” value read?
Answer: 81.4%

Question: OCCn1cc(-c2cnc3nnn(Cc4ccc5ncccc5c4)c3n2)cn1 + COc1cc(N2CCC(N3CCN(C)CC3)CC2)ccc1Nc1ncc(Cl)c(Nc2ccccc2S(=O)(=O)C(C)C)n1 [NVP-TAE684] (first compound 1 µM, partner dose 0.08 µM) was tested. Which “cleaved PARP positive nuclei fraction” value did it give?
Answer: 85%

Question: How did the “cleaved PARP positive nuclei fraction” value turn out when O=C(Nc1cccc(Cl)c1)Nc1ncc(CCNc2ncnc3ccsc23)s1 + COc1ccc(COc2ccc(Cc3cnc(N)nc3N)cc2OC)cc1 [GW2580] (first compound 0.0008 µM, partner dose 1 µM) was run?
Answer: 94.7%

Question: With Cc1nc(Nc2ncc(C(=O)Nc3c(C)cccc3Cl)s2)cc(N2CCN(CCO)CC2)n1 [dasatanib] + O=C1NC(=O)/C(=C/c2ccc(-c3ccc(F)cc3O)o2)S1 [AS252424] (first compound 0.004 µM, partner dose 1 µM) as the compound, how does the “cleaved PARP positive nuclei fraction” value read?
Answer: 60.6%

Question: Which “cleaved PARP positive nuclei fraction” value does the source give for C[C@]1(c2nc3c(C(N)=O)cccc3[nH]2)CCCN1 [Veliparib] + Cc1cc([N+](=O)[O-])ccc1NS(=O)(=O)c1cc(Cl)ccc1Cl [FH535] (first compound 1.4 µM, partner dose 1 µM) here?
Answer: 227%

Question: With C[C@@H]1CCN(C(=O)CC#N)C[C@@H]1N(C)c1ncnc2[nH]ccc12 + COc1cc2ncnc(Nc3ccc(Oc4ccccc4)cc3)c2cc1OC [SrcI1] (first compound 1 µM, partner dose 2 µM) as the compound, how does the “cleaved PARP positive nuclei fraction” value read?
Answer: 42.2%

Question: How did the “cleaved PARP positive nuclei fraction” value turn out when CC1(C)NC(=O)N(c2ccc([N+](=O)[O-])c(C(F)(F)F)c2)C1=O [nilutamide] + c1cc(-c2cnn3cc(-c4ccc(OCCN5CCCCC5)cc4)cnc23)ccn1 [Dorsomorphin] (first compound 1 µM, partner dose 0.4 µM) was run?
Answer: 94.4%

Question: How did the “cleaved PARP positive nuclei fraction” value turn out when C[C@@H]1CCN(C(=O)CC#N)C[C@@H]1N(C)c1ncnc2[nH]ccc12 + c1cc(-c2cnn3cc(-c4ccc(OCCN5CCCCC5)cc4)cnc23)ccn1 [Dorsomorphin] (first compound 1 µM, partner dose 0.4 µM) was run?
Answer: 80.6%

Question: For NC(=O)Nc1cc(-c2cccc(F)c2)sc1C(=O)N[C@H]1CCCNC1 + O=S(=O)(c1ccccc1)N(CC(F)(F)F)c1ccc(C(O)(C(F)(F)F)C(F)(F)F)cc1 [T0901317] (first compound 0.02 µM, partner dose 1.4 µM), which “cleaved PARP positive nuclei fraction” value is on record?
Answer: 178%

Question: How did the “cleaved PARP positive nuclei fraction” value turn out when O=C(Nc1cccc(Cl)c1)Nc1ncc(CCNc2ncnc3ccsc23)s1 + COc1cc(N2CCC(N3CCN(C)CC3)CC2)ccc1Nc1ncc(Cl)c(Nc2ccccc2S(=O)(=O)C(C)C)n1 [NVP-TAE684] (first compound 0.0008 µM, partner dose 0.08 µM) was run?
Answer: 186%

Question: C[C@]1(c2nc3c(C(N)=O)cccc3[nH]2)CCCN1 [Veliparib] + O=S(=O)(c1ccccc1)N(CC(F)(F)F)c1ccc(C(O)(C(F)(F)F)C(F)(F)F)cc1 [T0901317] (first compound 1.4 µM, partner dose 1.4 µM) was tested. Which “cleaved PARP positive nuclei fraction” value did it give?
Answer: 170%

Question: For Cc1nc(Nc2ncc(C(=O)Nc3c(C)cccc3Cl)s2)cc(N2CCN(CCO)CC2)n1 [dasatanib] + CCc1ccc(CCOc2ccc(CC3SC(=O)NC3=O)cc2)nc1 [pioglitazone] (first compound 0.004 µM, partner dose 2 µM), which “cleaved PARP positive nuclei fraction” value is on record?
Answer: 148%
